{"source": "patent US11248002B2", "about": "“Sesquiterpene derivative and use of the same in preparation of medicament for treating hepatitis b diseases” (KUNMING UNIVERSITY OF SCIENCE AND TECHNOLOGY, priority 2018, dated 2022)", "system": "hepatitis B virus", "assay": "In vivo anti-hepatitis B virus activity in C57 mice given HBV1.2 plasmid", "conditions": "20 mg/Kg, intragastric once a day", "note": "At least one structure is not confirmed: it was looked up by name or label, or the drawing left a doubt.", "data": [{"smiles": "Nc1ccn([C@@H]2CS[C@H](CO)O2)c(=O)n1", "note": "[lamivudine, reference compound]", "values": [{"measurement": "inhibition of hepatitis B virus compared with the model group", "value": "significantly inhibited"}]}]}
